Reference: PMC5661649, “G-protein-coupled receptors mediate 14-3-3 signal transduction” (Signal Transduction and Targeted Therapy, 2016)
These are yes or no findings as the source states them, for the method shown. Some entries that bind do so weakly or less than the wild type. Values belong to the substance of their own block, whether it stands above or below them.

Chains of the proteins cited; added tags and fusions are not shown.
UniProt P35348: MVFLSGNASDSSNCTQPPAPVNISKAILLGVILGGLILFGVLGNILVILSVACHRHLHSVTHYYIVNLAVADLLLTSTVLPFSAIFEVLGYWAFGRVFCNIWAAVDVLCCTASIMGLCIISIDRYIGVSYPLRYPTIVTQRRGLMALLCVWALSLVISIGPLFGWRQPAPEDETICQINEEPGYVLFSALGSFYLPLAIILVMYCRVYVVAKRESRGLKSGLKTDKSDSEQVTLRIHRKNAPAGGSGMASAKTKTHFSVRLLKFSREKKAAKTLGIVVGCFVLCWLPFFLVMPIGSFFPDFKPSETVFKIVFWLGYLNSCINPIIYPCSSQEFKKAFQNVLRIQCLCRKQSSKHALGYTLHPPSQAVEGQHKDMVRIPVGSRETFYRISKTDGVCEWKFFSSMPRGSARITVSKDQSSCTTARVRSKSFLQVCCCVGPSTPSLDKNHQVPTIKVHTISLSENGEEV
UniProt P14416: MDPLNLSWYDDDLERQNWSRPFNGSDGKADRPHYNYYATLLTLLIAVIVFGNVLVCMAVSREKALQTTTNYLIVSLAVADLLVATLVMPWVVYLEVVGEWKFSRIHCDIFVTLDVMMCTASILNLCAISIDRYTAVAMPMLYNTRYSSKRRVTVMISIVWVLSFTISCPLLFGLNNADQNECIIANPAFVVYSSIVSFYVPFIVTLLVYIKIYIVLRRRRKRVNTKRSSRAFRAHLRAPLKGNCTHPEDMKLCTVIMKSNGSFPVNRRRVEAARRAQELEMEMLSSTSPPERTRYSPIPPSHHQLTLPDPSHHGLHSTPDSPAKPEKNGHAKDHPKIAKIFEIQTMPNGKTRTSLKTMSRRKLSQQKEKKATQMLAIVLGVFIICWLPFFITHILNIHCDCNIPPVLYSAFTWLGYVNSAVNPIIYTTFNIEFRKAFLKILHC
UniProt P20309: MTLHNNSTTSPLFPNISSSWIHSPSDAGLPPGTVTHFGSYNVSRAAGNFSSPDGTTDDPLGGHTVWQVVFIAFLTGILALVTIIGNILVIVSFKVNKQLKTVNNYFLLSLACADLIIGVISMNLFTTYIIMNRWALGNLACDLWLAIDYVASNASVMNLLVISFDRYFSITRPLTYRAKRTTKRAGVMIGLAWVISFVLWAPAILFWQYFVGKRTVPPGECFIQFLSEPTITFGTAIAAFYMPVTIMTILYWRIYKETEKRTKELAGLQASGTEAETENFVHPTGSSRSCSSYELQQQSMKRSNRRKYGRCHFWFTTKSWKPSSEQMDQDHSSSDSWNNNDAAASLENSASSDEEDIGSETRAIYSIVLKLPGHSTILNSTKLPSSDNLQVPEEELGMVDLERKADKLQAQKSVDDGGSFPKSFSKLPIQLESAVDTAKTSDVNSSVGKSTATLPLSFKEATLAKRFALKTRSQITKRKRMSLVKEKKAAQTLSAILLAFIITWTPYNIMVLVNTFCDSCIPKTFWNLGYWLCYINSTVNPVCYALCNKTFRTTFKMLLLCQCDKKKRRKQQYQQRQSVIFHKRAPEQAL
UniProt P08912: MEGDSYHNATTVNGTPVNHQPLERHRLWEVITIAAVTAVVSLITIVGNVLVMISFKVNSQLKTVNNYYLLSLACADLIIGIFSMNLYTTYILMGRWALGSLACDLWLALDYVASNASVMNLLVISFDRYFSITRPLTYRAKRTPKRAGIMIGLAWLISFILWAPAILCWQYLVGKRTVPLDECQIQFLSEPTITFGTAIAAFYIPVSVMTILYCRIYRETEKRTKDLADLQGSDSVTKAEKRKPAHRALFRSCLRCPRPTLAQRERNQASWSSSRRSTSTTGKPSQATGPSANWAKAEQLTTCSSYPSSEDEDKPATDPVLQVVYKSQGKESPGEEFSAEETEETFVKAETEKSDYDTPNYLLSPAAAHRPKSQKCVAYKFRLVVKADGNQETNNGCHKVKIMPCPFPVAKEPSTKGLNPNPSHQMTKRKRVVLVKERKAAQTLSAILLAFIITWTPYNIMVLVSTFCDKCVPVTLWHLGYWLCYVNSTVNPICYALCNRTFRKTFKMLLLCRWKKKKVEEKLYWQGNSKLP
UniProt P13945: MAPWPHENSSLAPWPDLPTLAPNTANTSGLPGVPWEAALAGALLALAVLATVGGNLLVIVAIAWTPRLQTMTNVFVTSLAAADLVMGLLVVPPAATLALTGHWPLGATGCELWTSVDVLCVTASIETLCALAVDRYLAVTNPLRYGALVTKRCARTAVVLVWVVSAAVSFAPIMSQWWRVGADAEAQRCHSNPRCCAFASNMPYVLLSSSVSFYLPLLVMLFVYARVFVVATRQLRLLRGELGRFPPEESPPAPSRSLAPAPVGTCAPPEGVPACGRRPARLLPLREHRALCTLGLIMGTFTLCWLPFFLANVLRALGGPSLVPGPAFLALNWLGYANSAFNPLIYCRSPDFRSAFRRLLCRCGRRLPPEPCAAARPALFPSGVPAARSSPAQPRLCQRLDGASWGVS
UniProt P32121: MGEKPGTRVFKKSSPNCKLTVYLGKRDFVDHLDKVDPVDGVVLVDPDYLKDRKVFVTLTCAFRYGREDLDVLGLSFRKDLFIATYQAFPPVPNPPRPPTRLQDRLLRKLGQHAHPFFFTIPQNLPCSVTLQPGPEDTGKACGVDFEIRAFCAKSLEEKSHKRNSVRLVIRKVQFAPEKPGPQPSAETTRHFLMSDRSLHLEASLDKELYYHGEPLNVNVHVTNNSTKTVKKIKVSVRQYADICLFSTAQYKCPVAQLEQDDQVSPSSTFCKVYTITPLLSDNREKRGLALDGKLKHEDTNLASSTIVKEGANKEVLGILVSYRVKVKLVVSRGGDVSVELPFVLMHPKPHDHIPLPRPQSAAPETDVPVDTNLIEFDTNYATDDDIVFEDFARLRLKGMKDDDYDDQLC
UniProt P62258: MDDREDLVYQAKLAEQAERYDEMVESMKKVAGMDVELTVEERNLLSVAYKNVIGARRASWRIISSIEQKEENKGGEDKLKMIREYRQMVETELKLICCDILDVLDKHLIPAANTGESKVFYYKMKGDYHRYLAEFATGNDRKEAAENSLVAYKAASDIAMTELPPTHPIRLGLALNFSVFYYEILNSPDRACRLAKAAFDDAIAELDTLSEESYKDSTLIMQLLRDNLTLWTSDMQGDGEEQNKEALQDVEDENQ
UniProt P63104: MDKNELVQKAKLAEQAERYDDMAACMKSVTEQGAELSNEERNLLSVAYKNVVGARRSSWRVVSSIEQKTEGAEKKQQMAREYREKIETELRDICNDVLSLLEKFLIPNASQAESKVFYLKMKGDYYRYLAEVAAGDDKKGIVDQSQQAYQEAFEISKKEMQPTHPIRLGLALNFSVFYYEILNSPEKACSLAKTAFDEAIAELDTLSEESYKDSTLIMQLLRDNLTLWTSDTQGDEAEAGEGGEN

Key:
Assay in all cases: LinkLight (TEV protease on one partner cleaves permuted luciferase on the other)
[1] = biological target: Alpha adrenergic receptor 1A (α1AR) fused to TEV protease (human) (UniProt P35348)
[2] = biological target: β2-adrenergic receptor (ADRB2) fused to permuted luciferase (human) (UniProt P07550)
[3] = biological target: β2-adrenergic receptor (ADRB2) fused to tobacco etch virus (TEV) protease (human) (UniProt P07550)
[4] = biological target: Raf-1 fused to TEV protease (UniProt P04049)
[5] = biological target: adenosine receptor A2a (ADORA2A) fused to TEV protease (human) (UniProt P29274)
[6] = biological target: dopamine receptor D2 (DRD2) fused to TEV protease (human) (UniProt P14416)
[7] = biological target: muscarinic cholinergic receptor 3 (CHRM3) fused to TEV protease (human) (UniProt P20309)
[8] = biological target: muscarinic cholinergic receptor 5 (CHRM5) fused to TEV protease (human) (UniProt P08912)
[9] = biological target: β3 adrenergic receptor (ADRB3) fused to TEV protease (human) (UniProt P13945)

Substance: β-arrestin-2-permuted luciferase (from UniProt P32121 1-409)
binding [1]: binds

Substance: 14-3-3 epsilon fused to TEV protease (from UniProt P62258 1-255)
binding [2]: binds

Substance: 14-3-3 epsilon fused to permuted luciferase (in U2OS cells) (from UniProt P62258 1-255)
binding [4]: binds

Other lines, results leading:

binding [3]: binds
Substance: 14-3-3 zeta fused to permuted luciferase (from UniProt P63104 1-245)

binding [1]: binds
binding [5]: binds
binding [6]: binds
binding [7]: binds
binding [8]: binds
binding [3]: binds
binding [9]: binds
Substance: 14-3-3 epsilon fused to permuted luciferase (from UniProt P62258 1-255)
